Laboratory results taken from PMC10957913, “GAS41 modulates ferroptosis by anchoring NRF2 on chromatin” (Nature Communications, 2024).
No constants are given. Whether binding was seen depends on the method and setting. In cells and extracts the contact can be indirect. A yes stands for co-enrichment or nearness to the bait. Other partners may have been found. Tags and fused reporters may be left off the sequences shown.

Chains of the proteins cited; added tags and fusions are not shown.
UniProt O95619: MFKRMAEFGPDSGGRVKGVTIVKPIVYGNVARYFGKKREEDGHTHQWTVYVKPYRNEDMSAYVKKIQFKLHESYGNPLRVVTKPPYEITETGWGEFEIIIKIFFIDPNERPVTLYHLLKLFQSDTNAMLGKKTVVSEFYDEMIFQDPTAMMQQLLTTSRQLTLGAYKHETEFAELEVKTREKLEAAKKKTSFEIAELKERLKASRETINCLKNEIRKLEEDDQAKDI

Target: T1, N-terminal Flag-HA-tagged NRF2 (FH-NRF2) (UniProt Q16236)
T1 sequence: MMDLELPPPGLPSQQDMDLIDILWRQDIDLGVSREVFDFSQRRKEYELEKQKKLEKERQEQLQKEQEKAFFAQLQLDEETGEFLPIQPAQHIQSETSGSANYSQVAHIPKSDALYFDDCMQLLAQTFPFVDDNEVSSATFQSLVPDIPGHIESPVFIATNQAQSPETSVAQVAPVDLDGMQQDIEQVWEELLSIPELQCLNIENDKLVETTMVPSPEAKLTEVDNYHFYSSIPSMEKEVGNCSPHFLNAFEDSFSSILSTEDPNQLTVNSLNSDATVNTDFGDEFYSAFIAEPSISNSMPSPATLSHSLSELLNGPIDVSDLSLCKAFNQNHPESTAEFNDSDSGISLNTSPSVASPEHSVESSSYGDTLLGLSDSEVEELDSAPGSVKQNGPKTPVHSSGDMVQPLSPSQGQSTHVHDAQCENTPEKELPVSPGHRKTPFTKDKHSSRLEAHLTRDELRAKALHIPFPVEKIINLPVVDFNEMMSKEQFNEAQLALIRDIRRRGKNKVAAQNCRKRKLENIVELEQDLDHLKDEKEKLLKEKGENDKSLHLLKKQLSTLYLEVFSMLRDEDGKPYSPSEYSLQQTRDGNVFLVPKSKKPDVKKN
Experiment: affinity purification with mass spectrometry; NRF2-associated proteins purified from nuclear extraction of the FH-NRF2 H1299 stable cell line; Coomassie-stained bands cut and analyzed by mass spectrometry

With “GAS41 (Glioma Amplified Sequence 41), endogenous in H1299 (from UniProt O95619 1-227)” the binding was “binds”.
